Laboratory results reported in publication PMC11322666.
Positions count from the first letter of the chain named. No constants are given. Whether binding was seen depends on the method and setting. Binding seen in cells or lysates may run through a third protein. Some entries that bind do so weakly or less than the wild type. Where a sequence is shown, tags or fusion partners need not be part of it.

The chains behind the UniProt entries cited, without tags or fusion partners. Where a name states a change or a piece, a line headed by the entry shows the natural chain unless it says otherwise.
UniProt O75460: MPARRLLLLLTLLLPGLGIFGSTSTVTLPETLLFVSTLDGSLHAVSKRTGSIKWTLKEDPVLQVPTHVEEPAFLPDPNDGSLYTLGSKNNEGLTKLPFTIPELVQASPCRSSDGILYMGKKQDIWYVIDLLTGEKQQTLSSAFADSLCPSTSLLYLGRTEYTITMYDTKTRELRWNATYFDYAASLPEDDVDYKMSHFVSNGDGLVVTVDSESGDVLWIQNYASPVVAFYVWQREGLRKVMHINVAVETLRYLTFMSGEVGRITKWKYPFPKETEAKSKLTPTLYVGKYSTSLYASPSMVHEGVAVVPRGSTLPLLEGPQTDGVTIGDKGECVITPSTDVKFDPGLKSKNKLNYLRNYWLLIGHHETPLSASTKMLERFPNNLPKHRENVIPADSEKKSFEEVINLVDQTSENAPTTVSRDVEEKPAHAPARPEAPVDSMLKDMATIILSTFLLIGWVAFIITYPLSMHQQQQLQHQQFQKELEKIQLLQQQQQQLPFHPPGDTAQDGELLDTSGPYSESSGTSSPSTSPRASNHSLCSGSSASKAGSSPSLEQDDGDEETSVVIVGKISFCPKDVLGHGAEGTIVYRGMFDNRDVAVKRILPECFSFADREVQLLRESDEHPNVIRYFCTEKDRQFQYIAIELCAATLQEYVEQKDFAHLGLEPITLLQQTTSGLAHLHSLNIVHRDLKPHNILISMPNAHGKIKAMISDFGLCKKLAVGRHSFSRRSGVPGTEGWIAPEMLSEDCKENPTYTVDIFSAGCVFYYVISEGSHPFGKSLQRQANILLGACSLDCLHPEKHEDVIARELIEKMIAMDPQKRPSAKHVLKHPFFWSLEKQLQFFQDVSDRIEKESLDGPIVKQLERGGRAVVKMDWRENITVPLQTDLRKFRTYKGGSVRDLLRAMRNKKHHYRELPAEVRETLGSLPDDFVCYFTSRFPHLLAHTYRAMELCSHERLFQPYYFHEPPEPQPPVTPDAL
UniProt Q9HAU5: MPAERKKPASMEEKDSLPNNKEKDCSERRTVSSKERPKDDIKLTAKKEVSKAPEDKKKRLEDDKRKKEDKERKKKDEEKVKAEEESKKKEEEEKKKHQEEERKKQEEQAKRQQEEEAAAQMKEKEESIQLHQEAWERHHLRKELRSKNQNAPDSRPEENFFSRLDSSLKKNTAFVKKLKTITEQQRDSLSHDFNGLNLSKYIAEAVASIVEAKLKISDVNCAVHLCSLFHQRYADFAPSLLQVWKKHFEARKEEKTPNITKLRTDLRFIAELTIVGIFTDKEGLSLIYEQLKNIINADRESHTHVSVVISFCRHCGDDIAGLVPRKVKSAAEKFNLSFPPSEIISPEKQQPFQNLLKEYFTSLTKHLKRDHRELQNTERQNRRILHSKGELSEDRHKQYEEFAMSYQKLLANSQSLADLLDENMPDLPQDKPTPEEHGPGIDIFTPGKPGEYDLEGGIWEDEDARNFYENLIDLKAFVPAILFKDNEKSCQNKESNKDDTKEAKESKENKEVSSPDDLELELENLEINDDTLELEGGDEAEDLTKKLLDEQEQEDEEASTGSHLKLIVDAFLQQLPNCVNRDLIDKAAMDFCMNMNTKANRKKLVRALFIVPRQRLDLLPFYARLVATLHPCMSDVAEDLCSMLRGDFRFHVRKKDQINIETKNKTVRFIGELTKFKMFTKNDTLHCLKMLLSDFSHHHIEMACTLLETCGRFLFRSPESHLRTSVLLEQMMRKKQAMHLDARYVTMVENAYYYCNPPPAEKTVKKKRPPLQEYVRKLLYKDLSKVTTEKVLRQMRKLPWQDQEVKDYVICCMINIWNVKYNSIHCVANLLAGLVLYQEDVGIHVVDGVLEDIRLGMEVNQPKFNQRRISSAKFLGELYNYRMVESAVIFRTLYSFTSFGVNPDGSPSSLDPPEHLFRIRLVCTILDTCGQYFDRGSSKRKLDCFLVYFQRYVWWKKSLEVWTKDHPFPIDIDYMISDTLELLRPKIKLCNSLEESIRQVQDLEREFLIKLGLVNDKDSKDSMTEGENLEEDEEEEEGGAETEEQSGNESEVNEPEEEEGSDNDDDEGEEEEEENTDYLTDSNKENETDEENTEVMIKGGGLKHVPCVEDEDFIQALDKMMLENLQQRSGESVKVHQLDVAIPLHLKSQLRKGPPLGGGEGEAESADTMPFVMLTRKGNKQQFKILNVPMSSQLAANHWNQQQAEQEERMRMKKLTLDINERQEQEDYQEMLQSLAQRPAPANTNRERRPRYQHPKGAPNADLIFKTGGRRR

Columns and labels:
[1] = target: T1, GST-UPF3B fusion protein (human) (UniProt Q9BZI7); test: pull-down; GST fusion protein from Rosetta cells on Glutathione Sepharose beads, incubated with HEK293T lysate for 4 h at 4 °C, washed three times with RIPA buffer, western blot with anti-Flag or anti-GST; only the target purified
T1 sequence: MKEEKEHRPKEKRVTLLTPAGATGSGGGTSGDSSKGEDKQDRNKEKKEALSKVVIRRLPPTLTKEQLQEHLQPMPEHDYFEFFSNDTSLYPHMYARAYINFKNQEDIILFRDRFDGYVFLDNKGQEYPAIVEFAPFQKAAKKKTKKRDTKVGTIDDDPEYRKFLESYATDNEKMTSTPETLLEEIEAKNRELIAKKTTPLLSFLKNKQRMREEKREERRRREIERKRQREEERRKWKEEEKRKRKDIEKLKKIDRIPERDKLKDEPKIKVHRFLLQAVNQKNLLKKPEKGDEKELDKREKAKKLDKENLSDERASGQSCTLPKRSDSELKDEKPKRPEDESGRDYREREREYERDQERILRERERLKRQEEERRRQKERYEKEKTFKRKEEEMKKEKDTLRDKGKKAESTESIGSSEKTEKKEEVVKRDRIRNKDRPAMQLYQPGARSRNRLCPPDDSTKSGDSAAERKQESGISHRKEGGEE

[2] = target: T2, UPF3B^WT, Flag tagged (human) (UniProt Q9BZI7); test: co-IP; HEK293T cells with gradient overexpression of UPF2 MIF4G-3 plasmid for 24 h, lysates immunoprecipitated by anti-Flag antibody
T2 sequence: T1 sequence

[3] = target: T2, UPF3B^WT, Flag tagged (human); test: co-IP; lysates of transfected HEK293T or U2OS cells (24 h) in NETN buffer (20 mM Tris-HCl pH 8.0, 100 mM NaCl, 1 mM EDTA, 0.5% NP-40), IP with anti-Flag (M2) magnetic beads or the indicated antibodies, western blot; Fig. 3G two-way
[4] = target: T3, UPF3B^T198D, Flag tagged (human) (UniProt Q9BZI7); test: as above
T3 sequence: T1 sequence with T198D

[5] = target: T4, UPF3B^T197D, Flag tagged (human) (UniProt Q9BZI7); test: as above
T4 sequence: T1 sequence with T197D

[6] = target: T5, UPF3B^Y160F, Flag tagged (human) (UniProt Q9BZI7); test: as above
T5 sequence: T1 sequence with Y160F

[7] = target: T6, UPF3B^T198A, Flag tagged (human) (UniProt Q9BZI7); test: as above
T6 sequence: T1 sequence with T198A

[8] = target: T7, UPF3B^T197A, Flag tagged (human) (UniProt Q9BZI7); test: as above
T7 sequence: T1 sequence with T197A

[9] = target: T8, UPF3B^T169A, Flag tagged (human) (UniProt Q9BZI7); test: as above
T8 sequence: T1 sequence with T169A

| binding [1] | binding [2] | binding [3] | binding [4] | binding [5] | binding [6] | binding [7] | binding [8] | binding [9] | Substance |
| --- | --- | --- | --- | --- | --- | --- | --- | --- | --- |
| binds | – | – | – | – | – | – | – | – | IRE1α^K-Flag (from UniProt O75460 571-832) (domain or fragment) |
| – | binds | – | – | – | – | – | – | – | UPF2 MIF4G-3 segment (from UniProt Q9HAU5 773-986) (domain or fragment) |
| – | – | binds | binds | binds | binds | – | – | – | UPF2, endogenous (from UniProt Q9HAU5 1-1272) |
| – | binds | binds | binds | binds | binds | binds | binds | binds | inositol-requiring enzyme-1α (IRE1α), endogenous (from UniProt O75460 19-977) |
